Results are given in words; binding and its absence hold for the method and conditions named. Binding seen in cells or lysates may run through a third protein. Some entries that bind do so weakly or less than the wild type. Where a sequence is shown, tags or fusion partners need not be part of it.
Biological target: T1, the C-terminal of ITGB4 (ITGB4 1356–1756), HA-tagged (UniProt P16144)
T1 sequence: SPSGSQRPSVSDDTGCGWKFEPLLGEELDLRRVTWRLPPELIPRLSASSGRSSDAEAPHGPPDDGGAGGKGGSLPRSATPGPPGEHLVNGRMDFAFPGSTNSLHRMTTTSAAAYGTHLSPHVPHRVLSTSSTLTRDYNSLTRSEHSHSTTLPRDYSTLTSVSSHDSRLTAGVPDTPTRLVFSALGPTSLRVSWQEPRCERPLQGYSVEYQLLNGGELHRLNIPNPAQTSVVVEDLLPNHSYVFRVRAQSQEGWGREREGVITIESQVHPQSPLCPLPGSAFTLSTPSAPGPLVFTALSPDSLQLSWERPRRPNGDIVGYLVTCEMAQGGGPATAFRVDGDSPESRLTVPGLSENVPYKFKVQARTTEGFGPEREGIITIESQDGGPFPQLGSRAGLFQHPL
Test: co-IP; 293T cells cotransfected with FLAG-TMEM268 and HA-tagged ITGB4 fragments for 24 h; IP with an anti-HA antibody; ITGB4 mutants and FLAG-TMEM268 detected by western blotting

binding: binds
Substance: FLAG-TMEM268 (in 293T cells) (from UniProt Q5VZI3 1-342)
